{"sequences": {"note": "Amino acid sequences for entries named in this document (tags omitted). Residues count along the entry.", "UniProt P46527, residues 1-109": "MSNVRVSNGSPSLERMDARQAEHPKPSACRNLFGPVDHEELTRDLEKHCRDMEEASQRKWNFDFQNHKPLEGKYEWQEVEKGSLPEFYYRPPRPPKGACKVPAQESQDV", "UniProt P46414": "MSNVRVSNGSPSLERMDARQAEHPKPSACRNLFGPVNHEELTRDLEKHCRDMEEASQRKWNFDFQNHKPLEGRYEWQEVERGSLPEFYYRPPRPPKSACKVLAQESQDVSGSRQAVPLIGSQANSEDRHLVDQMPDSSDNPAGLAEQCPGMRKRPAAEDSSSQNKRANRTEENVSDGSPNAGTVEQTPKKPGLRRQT"}, "source": "paper PMC4583784", "key": {"[1]": {"target": "CDK2 (mouse (endogenous in MEL)) (UniProt P97377)", "assay": "co-IP; anti-CDK2 (1 µg, Protein A/G agarose) or IgG immunoprecipitates from MEL cells lysed in RIPA buffer; cells with vector-sh or Fbxo7-sh, with or without 6 days of DMSO; immunoblot"}, "[2]": {"target": "GST-p27 (1–109) (UniProt P46527)", "assay": "pull-down; GST-p27 (1–109) as bait; increasing doses of in vitro transcribed and translated T7-Fbxo7 added; immunoblot, bound Fbxo7 quantified relative to input and as a percentage of Fbxo7 Met115; only the target purified"}}, "note": "These are yes or no findings as the source states them, for the method shown. In cells and extracts the contact can be indirect. Some results given as binding are weak or reduced against the parent protein; the word gives no strength."}
{"molecule": "p27 (from UniProt P46414 1-197)", "values": [{"measurement": "binding", "setting": "[1]", "result": "binds"}]}
{"molecule": "T7-Fbxo7 (1–398) Met115 (domain or fragment, UniProt Q9Y3I1 1-398) MRLRVRLLKRTWPLEVPETEPTLGHLRSHLRQSLLCTWGYSSNTRFTITLNYKDPLTGDEETLASYGIVSGDLICLILQDDIPAPNIPSSTDSEHSSLQNNEQPSLATSSNQTSMQDEQPSDSFQGQAAQSGVWNDDSMLGPSQNFEAESIQDNAHMAEGTGFYPSEPMLCSESVEGQVPHSLETLYQSADCSDANDALIVLIHLLMLESGYIPQGTEAKALSMPEKWKLSGVYKLQYMHPLCEGSSATLTCVPLGNLIVVNATLKINNEIRSVKRLQLLPESFICKEKLGENVANIYKDLQKLSRLFKDQLVYPLLAFTRQALNLPDVFGLVVLPLELKLRIFRLLDVRSVLSLSAVCRDLFTASNDPLLWRFLYLRDFRDNTVRVQDTDWKELYRK", "values": [{"measurement": "binding", "setting": "[2]", "result": "binds"}]}
{"molecule": "Fbxo7 (endogenous murine) (protein, UniProt Q3U7U3 1-523) MKLRVRLQKRTQPLEVPESEPTLGQLRAHLSQVLLPTLGFSSDTRFAITLNNKDALTGDEETLASYGIVSGDLICLVLEDDMPAPNLPSSTDTEHSSLQDNDQPSLAATPSQTNIPDEQGTDSSQGQATPFDAWTDDSMEGPSQNVEAESIQDAMSMEEVSGFHPLEPMLCNETEDGQVPHSLETLYQSAGCSNISDALIVLVHLLMLESGYIPQGTETKAVTMPEKWKSSGVYKLQYTHPLCEGGFAVLTCVPLGNLIIINATIKVNGGIKNVKSVQLQPGSYVAAGVEPGESAAKVYKDLKKLSRLFKDQLVYPLLAFTRQVLNLPDVFGLVVLPLELKLRIFRLLDVHSVLALSAVCHDLLIASNDPLLWRCLYLRDFRDGTVRGPDTDWKELYRKKHIQRKEAQRMRHAMFLPSAHPIPFCPIPVYPRAYLPTSLLPPGIIGGEYDERPILPSVGDPVTSLIPRPGELPGQFRPLRPRFDPVDPLPGPHSLLPGRAIPNNRFPFRPGRGRSADSRLPFL", "values": [{"measurement": "binding", "setting": "[1]", "result": "no binding"}]}
